Measurements from PubChem BioAssay AID493014 (National Center for Advancing Translational Sciences (NCATS), 2011).
Screen size: about 340,000 compounds; about 170 (0.05%) were called active. The inconclusive results got no clear call from the source; some entries with a clear call stand among them for comparison. Calls come from the whole dose curve; as a rule, active = well fitted inhibition curve with a large enough effect in the signal ratio, with a control signal flat (not every such curve was filed as active); inconclusive = small, poorly fitted or top-dose-only effect, or effect the other way, or a change in a side signal; inactive = flat fitted curve, though single readings scatter; the % refers to the signal ratio. Where the call is inconclusive, the potency comes from a doubtful curve fit.
Potency is the fitted concentration of half-maximal effect.

Assay: qHTS Assay to Find Inhibitors of Chronic Active B-Cell Receptor Signaling;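 for activity change, negative = inhibition: plate controls were basal doxycycline-induced cells for no effect and cells given 10 µM MG132 for full effect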
Settings: ABC-DLBCL IkBa-CBG/CBR reporter, luminescence ratio (green luciferase fused to IkBa over red control in TMD8 lymphoma cells), 4 h; activity change, negative = inhibition: at 46.1 µM (top of the series)
In short: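 Doxycycline induced both beetle luciferases in TMD8 lymphoma cells; IKK-driven degradation limits the IkappaBalpha-fused green signal, while red luminescence normalises for cell number and nonspecific effects. Compounds tested up to 46 uM, 4 hrs.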
With Cc1cc(C)c(NS(=O)(=O)c2cccc3cccnc23)c(C)c1 the “activity change, negative = inhibition” value was inactive: -2.05%. In the case of CCOc1ccc(S(=O)(=O)N2CCCC(C(=O)NCc3cccnc3)C2)cc1 (centres undefined), the “activity change, negative = inhibition” value is reported as inactive: -6.04%. In the case of Cc1ccc(C(=O)C2=C(O)C(=O)N(c3ncccn3)C2c2ccccc2F)o1 (centres undefined), the activity change, negative = inhibition is reported as inconclusive: 2.99%. In the case of Cc1cccc(NC(=S)/N=C(\N)Nc2nc(C)c3ccc(C)cc3n2)c1, the activity change, negative = inhibition is reported as inconclusive: -0.499%. In the case of CC(=O)N1CC(=O)N=C1SCC(=O)Nc1nc(-c2ccccc2)c(-c2ccccc2)s1, the activity change, negative = inhibition is reported as inconclusive: -8.93%. For CC(C)c1ccccc1NC(=O)CNCCc1ccc(C(F)(F)F)cc1, the activity change, negative = inhibition was inconclusive: -9.63%. In the case of CCCCC1=NN(C(=O)c2cocc2C)C(O)(C(F)(F)F)C1 (centres undefined), the Potency is reported as inconclusive: 8.2 µM [falling, partial curve, poor fit]. For Cn1c(CCNC(=O)C2CCCCC2)nc2cc(NC(=O)c3cccs3)ccc21, the Potency was inconclusive: 1.41 µM [falling, partial curve, poor fit]. For O=c1c2ccccc2ncn1CCCOc1ccccc1[N+](=O)[O-], the activity change, negative = inhibition was inconclusive: 11.3%. For C=CCNC(=S)N/N=C(\C)c1cccc(OC)c1, the Potency was inconclusive: 29.1 µM [falling, single point]. With O=C(Nc1ccc(Cl)c(Cl)c1)Nc1ccccc1NS(=O)(=O)c1cccs1 the activity change, negative = inhibition was inconclusive: -6.85%. For COc1ccc(C(=O)/C=C/c2cn(CN3CCN(C)CC3)c3ccccc23)cc1, the Potency was inconclusive: 6.51 µM [falling, partial curve]. For O=C(O)c1cccc(-c2ccc(/C=N/Nc3nn[nH]n3)o2)c1, the activity change, negative = inhibition was inconclusive: -1.6%. With COc1ccc(NC(=O)c2sc(NC(=O)COc3ccccc3)nc2C)cc1 the Potency was inconclusive: 15.8 µM [falling, partial curve]. With Cc1cc(NS(=O)(=O)c2ccc(NC(=O)Cc3ccc([N+](=O)[O-])cc3)cc2)nc(C)n1 the activity change, negative = inhibition was inconclusive: 4.88%. For COCCn1c(C(C)C)nc2ccccc21, the “activity change, negative = inhibition” value was inactive: -3.01%. For COc1ccc(-c2nc3ccc([N+](=O)[O-])cc3o2)cc1, the activity change, negative = inhibition was inconclusive: 9.17%. In the case of COc1cccc(S(=O)(=O)NCc2ccc(C(=O)Nc3ccc(Cl)c(Cl)c3)cc2)c1, the activity change, negative = inhibition is reported as inconclusive: 12.3%. With Cc1nn(C)cc1/C=N\NC(=O)Cc1ccc([N+](=O)[O-])cc1 the activity change, negative = inhibition was inconclusive: 1.24%. For CCCC(=O)N(c1ccc2oc(=O)sc2c1)S(=O)(=O)c1cccs1, the Potency was inconclusive: 35.5 µM [falling, single point]. In the case of Cc1ccc(CNC(=O)C2CC3Cn4c(nc5cc6ccccc6cc54)C3N2C)o1 (centres undefined), the activity change, negative = inhibition is reported as inconclusive: 5.88%. For CC(=O)Nc1cccc(C(=O)Nc2ccccc2N2CCOCC2)c1, the Potency was inconclusive: 4.61 µM [falling, full curve]. In the case of CN1C(=O)/C(=C/c2ccccc2Cl)Sc2ccc(C(=O)NCc3cccnc3)cc21, the Potency is reported as inconclusive: 22.4 µM [falling, single point]. In the case of COc1ccccc1C1CC(=O)NC(C)=C1C(=O)OCC(C)C (centres undefined), the “activity change, negative = inhibition” value is reported as inactive: -0.979%. For C=CCn1c(SCC(=O)Nc2cc3oc4ccccc4c3cc2OC)nnc1-c1cnccn1, the “activity change, negative = inhibition” value was inactive: 10.2%. For Cc1cccc(NC(=O)C2CCN(S(=O)(=O)c3ccc4c(c3)OCCCO4)CC2)n1, the Potency was inconclusive: 6.51 µM [rising, partial curve, poor fit]. With COc1ccc(C2=C(Nc3ccccc3)c3ccccc3C2=O)cc1 the activity change, negative = inhibition was inconclusive: -8.21%. For CC(C)c1ccc(OCc2ccc(C(=O)N3CCN(c4ccccn4)CC3)cc2)cc1, the activity change, negative = inhibition was inconclusive: 5.04%. In the case of COc1ccc2sc(-c3ccc(N(C)C)cc3)c(C#CCCO)c2c1, the activity change, negative = inhibition is reported as inconclusive: -0.0211%. With O=C1c2cccc3cccc(c23)C(=O)N1Cc1ccccc1 the activity change, negative = inhibition was inconclusive: -27.9%. For O=C(N/N=C/c1ccc(Sc2ccccn2)o1)c1cc2ccccc2cc1O, the Potency was inconclusive: 18.4 µM [falling, single point]. With Cc1onc(-c2c(Cl)cccc2Cl)c1C(N)=S the “activity change, negative = inhibition” value was inactive: 2.11%. With Cc1cc(C)c(C)c(S(=O)(=O)N2CCN(C(=O)c3ccccn3)CC2)c1C the activity change, negative = inhibition was inconclusive: -2.52%. For NCC(c1ccccc1)c1c[nH]c2ccccc12 (centres undefined), the Potency was inconclusive: 35.5 µM [falling, partial curve, poor fit]. In the case of CCOc1ccc2nc(N(CCN(C)C)C(=O)c3cc4ccccc4cc3OC)sc2c1, the “activity change, negative = inhibition” value is reported as inactive: -9.9%. For O=C(Nc1cnc2ccccn2c1=O)c1ccc(Cl)cc1Cl, the activity change, negative = inhibition was inconclusive: 10.1%. For Cc1cc(C(=O)COC(=O)/C=C/c2cccc(F)c2)c(C)n1C, the activity change, negative = inhibition was inconclusive: 6.67%. For CCOC(=O)[C@H]1[C@H]2COc3ccc(Cl)cc3[C@@H]2N2C(=O)c3ccc(Cl)cc3NC(=O)[C@@]12C, the activity change, negative = inhibition was inconclusive: 0.799%. With Nc1ncnc(Sc2ccc(Cl)cc2)c1[N+](=O)[O-] the activity change, negative = inhibition was inconclusive: -9.22%. For O=C(/C=C/c1ccc(Cl)c([N+](=O)[O-])c1)c1ccc(O)cc1, the Potency was inconclusive: 31.6 µM [rising, single point]. With C[C@@H]1C(=O)O[C@H]2[C@H]1CC[C@@]1(C)C(=O)C=C[C@@](C)(O)[C@H]21 the activity change, negative = inhibition was inconclusive: 3.61%. For C/C(=N\O)C(C)(C)NC(=O)Nc1ccc(Cl)cc1, the activity change, negative = inhibition was inconclusive: 4.47%. In the case of O=C1c2ccccc2C(=O)N1CCn1nc(Cl)nc1Cl, the activity change, negative = inhibition is reported as inconclusive: 8.99%. For Cc1cc(N/N=C/c2cccc(F)c2)nc(NCc2ccccc2)n1, the activity change, negative = inhibition was inconclusive: 7.05%. For COc1ccc(OC)c(N2C(=O)CC(Cc3cc(C)cc(C)c3)C2=O)c1 (centres undefined), the activity change, negative = inhibition was inconclusive: -1.76%. In the case of COc1ccc([N+](=O)[O-])cc1NC(=O)CC(c1ccccc1)c1ccccc1, the Potency is reported as inconclusive: 14.6 µM [rising, partial curve, poor fit]. With FC(F)(F)c1cc(-c2ccccc2)nc(-n2cc(Cl)cn2)n1 the Potency was inconclusive: 22.4 µM [falling, partial curve]. For O=C(COc1ccc([N+](=O)[O-])cc1)Nc1ccc(C(=O)Nc2ccccc2C(=O)O)cc1, the Potency was inconclusive: 12.6 µM [falling, partial curve, poor fit]. In the case of Cc1cc(C(=O)N/N=C/c2ccc(O)c([N+](=O)[O-])c2)n[nH]1, the Potency is reported as inconclusive: 23.1 µM [falling, partial curve].
